{"source": "the supplement of paper PMC8728848", "binders": {"B1": {"name": "PEB4 (Campylobacter jejuni), A1VYV6 (protein)", "chain": "MKKFSLVAAALIAGVALNVNAATVATVNGKSISDAEVSEFFAPMLRGQDFKTLPDNQKKALIQQYIMQDLILQDAKKQNLEKDPLYTKELDRAKDAILVNVYQEKILNTIKIDAAKVKAFYDQNKDKYVKPARVQAKHILVATEKEAKDIINELKGLKGKELDAKFSELAKEKSIDPGSKNQGGELGWFDQSTMVKPFTDAAFALKNGTITTTPVKTNFGYHVILKENSQAKGQIKFDEVKQGIENGLKFEEFKKVINQKGQDLLNSAKVEYK"}}, "experiment_in_all_cases": "glycan array binding signal (z-score within array); higher = stronger binding", "settings_in_all_cases": "glycan notation: IUPAC condensed, linker removed", "key": {"[1]": {"target": "Neu5Ac(a2-6)Gal(b1-4)GlcNAc(b1-2)Man(a1-3)Man(b1-4)GlcNAc(b1-4)GlcNAc", "how_it_was_run": "(§1)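 The binding signal is a Z-score computed within each array. Data were drawn from 3228 arrays in the Consortium for Functional Glycomics database, restricted to those with a known protein sequence. Scores were averaged over arrays of the same protein sequence at different concentrations or buffers, and over linkers, and negative values can be taken as non-binding.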"}, "[2]": {"target": "Neu5Ac(a2-6)Gal(b1-4)GlcNAc(b1-2)Man(a1-3)[Gal(b1-4)GlcNAc(b1-2)Man(a1-6)]Man(b1-4)GlcNAc(b1-4)GlcNAc", "how_it_was_run": "as §1"}, "[3]": {"target": "Neu5Ac(a2-6)Gal(b1-4)GlcNAc(b1-2)Man(a1-3)[GlcNAc(b1-2)Man(a1-6)]Man(b1-4)GlcNAc(b1-4)GlcNAc", "how_it_was_run": "as §1"}, "[4]": {"target": "Neu5Ac(a2-6)Gal(b1-4)GlcNAc(b1-2)Man(a1-3)[GlcNAc(b1-2)Man(b1-4)GlcNAc(b1-2)Man(a1-6)]Man(b1-4)GlcNAc(b1-4)GlcNAc", "how_it_was_run": "as §1"}, "[5]": {"target": "Neu5Ac(a2-6)Gal(b1-4)GlcNAc(b1-2)Man(a1-3)[Man(a1-6)]Man(b1-4)GlcNAc(b1-4)GlcNAc", "how_it_was_run": "as §1"}, "[6]": {"target": "Neu5Ac(a2-6)Gal(b1-4)GlcNAc(b1-2)Man(a1-3)[Neu5Ac(a2-6)Gal(b1-4)GlcNAc(b1-2)Man(a1-6)]Man(b1-4)GlcNAc(b1-4)GlcNAc", "how_it_was_run": "as §1"}, "[7]": {"target": "Neu5Ac(a2-6)Gal(b1-4)GlcNAc(b1-2)Man(a1-6)Man(b1-4)GlcNAc(b1-4)GlcNAc", "how_it_was_run": "as §1"}, "[8]": {"target": "Neu5Ac(a2-6)Gal(b1-4)GlcNAc(b1-2)Man(a1-6)[Gal(b1-4)GlcNAc(b1-2)Man(a1-3)]Man(b1-4)GlcNAc(b1-4)GlcNAc", "how_it_was_run": "as §1"}, "[9]": {"target": "Neu5Ac(a2-6)Gal(b1-4)GlcNAc(b1-2)Man(a1-6)[GlcNAc(b1-2)Man(a1-3)]Man(b1-4)GlcNAc(b1-4)GlcNAc", "how_it_was_run": "as §1"}, "[10]": {"target": "Neu5Ac(a2-6)Gal(b1-4)GlcNAc(b1-2)Man(a1-6)[Man(a1-3)]Man(b1-4)GlcNAc(b1-4)GlcNAc", "how_it_was_run": "as §1"}, "[11]": {"target": "Neu5Ac(a2-6)Gal(b1-4)GlcNAc(b1-3)Gal(b1-3)GlcNAc", "how_it_was_run": "as §1"}, "[12]": {"target": "Neu5Ac(a2-6)Gal(b1-4)GlcNAc(b1-3)Gal(b1-4)GlcNAc", "how_it_was_run": "as §1"}, "[13]": {"target": "Neu5Ac(a2-6)Gal(b1-4)GlcNAc(b1-3)Gal(b1-4)GlcNAc(b1-3)Gal(b1-4)GlcNAc", "how_it_was_run": "as §1"}, "[14]": {"target": "Neu5Ac(a2-6)Gal(b1-4)GlcNAc(b1-3)Gal(b1-4)[Fuc(a1-3)]GlcNAc(b1-3)Gal(b1-4)[Fuc(a1-3)]GlcNAc", "how_it_was_run": "as §1"}, "[15]": {"target": "Neu5Ac(a2-6)Gal(b1-4)GlcNAc(b1-3)GalNAc", "how_it_was_run": "as §1"}, "[16]": {"target": "Neu5Ac(a2-6)Gal(b1-4)GlcNAc6S", "how_it_was_run": "as §1"}, "Neu5Ac(a2-6)GalNAc": {"target": "Neu5Ac(a2-6)GalNAc", "how_it_was_run": "as §1"}, "[17]": {"target": "Neu5Ac(a2-6)GalNAc(b1-4)GlcNAc", "how_it_was_run": "as §1"}, "[18]": {"target": "Neu5Ac(a2-6)GlcNAc(b1-4)GlcNAc", "how_it_was_run": "as §1"}, "[19]": {"target": "Neu5Ac(a2-6)GlcNAc(b1-4)GlcNAc(b1-4)GlcNAc", "how_it_was_run": "as §1"}, "Neu5Ac(a2-8)Neu5Ac": {"target": "Neu5Ac(a2-8)Neu5Ac", "how_it_was_run": "as §1"}, "[20]": {"target": "Neu5Ac(a2-8)Neu5Ac(a2-3)Gal(b1-4)Glc", "how_it_was_run": "as §1"}, "[21]": {"target": "Neu5Ac(a2-8)Neu5Ac(a2-3)[GalNAc(b1-4)]Gal(b1-4)Glc", "how_it_was_run": "as §1"}, "[22]": {"target": "Neu5Ac(a2-8)Neu5Ac(a2-8)Neu5Ac", "how_it_was_run": "as §1"}, "[23]": {"target": "Neu5Ac(a2-8)Neu5Ac(a2-8)Neu5Ac(a2-3)Gal(b1-4)Glc", "how_it_was_run": "as §1"}, "[24]": {"target": "Neu5Ac(a2-8)Neu5Ac(a2-8)Neu5Ac(a2-3)[GalNAc(b1-4)]Gal(b1-4)Glc", "how_it_was_run": "as §1"}, "[25]": {"target": "Neu5Ac(a2-8)Neu5Ac(a2-8)Neu5Ac(a2-8)Neu5Ac(a2-3)[GalNAc(b1-4)]Gal(b1-4)Glc", "how_it_was_run": "as §1"}, "[26]": {"target": "Neu5Ac(b2-6)Gal(b1-4)GlcNAc", "how_it_was_run": "as §1"}, "Neu5Ac(b2-6)GalNAc": {"target": "Neu5Ac(b2-6)GalNAc", "how_it_was_run": "as §1"}, "[27]": {"target": "Neu5Ac9Ac(a2-3)Gal(b1-3)GlcNAc", "how_it_was_run": "as §1"}, "[28]": {"target": "Neu5Ac9Ac(a2-3)Gal(b1-4)GlcNAc", "how_it_was_run": "as §1"}, "[29]": {"target": "Neu5Ac9Ac(a2-6)Gal(b1-4)GlcNAc", "how_it_was_run": "as §1"}, "[30]": {"target": "Neu5Gc(a2-3)Gal(b1-3)GlcNAc", "how_it_was_run": "as §1"}, "[31]": {"target": "Neu5Gc(a2-3)Gal(b1-3)[Fuc(a1-4)]GlcNAc", "how_it_was_run": "as §1"}, "Neu5Gc(a2-3)Gal(b1-4)Glc": {"target": "Neu5Gc(a2-3)Gal(b1-4)Glc", "how_it_was_run": "as §1"}, "[32]": {"target": "Neu5Gc(a2-3)Gal(b1-4)GlcNAc", "how_it_was_run": "as §1"}, "[33]": {"target": "Neu5Gc(a2-3)Gal(b1-4)[Fuc(a1-3)]GlcNAc", "how_it_was_run": "as §1"}, "[34]": {"target": "Neu5Gc(a2-6)Gal(b1-4)GlcNAc", "how_it_was_run": "as §1"}, "Neu5Gc(a2-6)GalNAc": {"target": "Neu5Gc(a2-6)GalNAc", "how_it_was_run": "as §1"}, "[35]": {"target": "Neu5Gc(b2-6)Gal(b1-4)GlcNAc", "how_it_was_run": "as §1"}}, "note": "Some of the results follow.", "data": [{"binder": "B1", "values": [{"measurement": "glycan array binding signal (z-score)", "setting": "[1]", "result": 0.508}, {"measurement": "glycan array binding signal (z-score)", "setting": "[2]", "result": 0.001}, {"measurement": "glycan array binding signal (z-score)", "setting": "[3]", "result": 0.605}, {"measurement": "glycan array binding signal (z-score)", "setting": "[4]", "result": -0.096}, {"measurement": "glycan array binding signal (z-score)", "setting": "[5]", "result": -0.137}, {"measurement": "glycan array binding signal (z-score)", "setting": "[6]", "result": 0.063}, {"measurement": "glycan array binding signal (z-score)", "setting": "[7]", "result": -0.33}, {"measurement": "glycan array binding signal (z-score)", "setting": "[8]", "result": -0.19}, {"measurement": "glycan array binding signal (z-score)", "setting": "[9]", "result": -1.16}, {"measurement": "glycan array binding signal (z-score)", "setting": "[10]", "result": 0.354}, {"measurement": "glycan array binding signal (z-score)", "setting": "[11]", "result": -0.889}, {"measurement": "glycan array binding signal (z-score)", "setting": "[12]", "result": -0.672}, {"measurement": "glycan array binding signal (z-score)", "setting": "[13]", "result": 0.084}, {"measurement": "glycan array binding signal (z-score)", "setting": "[14]", "result": -0.544}, {"measurement": "glycan array binding signal (z-score)", "setting": "[15]", "result": 0.725}, {"measurement": "glycan array binding signal (z-score)", "setting": "[16]", "result": 0.427}, {"measurement": "glycan array binding signal (z-score)", "setting": "Neu5Ac(a2-6)GalNAc", "result": -1.56}, {"measurement": "glycan array binding signal (z-score)", "setting": "[17]", "result": -0.144}, {"measurement": "glycan array binding signal (z-score)", "setting": "[18]", "result": -0.701}, {"measurement": "glycan array binding signal (z-score)", "setting": "[19]", "result": 0.131}, {"measurement": "glycan array binding signal (z-score)", "setting": "Neu5Ac(a2-8)Neu5Ac", "result": -0.265}, {"measurement": "glycan array binding signal (z-score)", "setting": "[20]", "result": -0.705}, {"measurement": "glycan array binding signal (z-score)", "setting": "[21]", "result": -0.055}, {"measurement": "glycan array binding signal (z-score)", "setting": "[22]", "result": -0.324}, {"measurement": "glycan array binding signal (z-score)", "setting": "[23]", "result": -0.607}, {"measurement": "glycan array binding signal (z-score)", "setting": "[24]", "result": -0.327}, {"measurement": "glycan array binding signal (z-score)", "setting": "[25]", "result": -0.575}, {"measurement": "glycan array binding signal (z-score)", "setting": "[26]", "result": 0.256}, {"measurement": "glycan array binding signal (z-score)", "setting": "Neu5Ac(b2-6)GalNAc", "result": -0.906}, {"measurement": "glycan array binding signal (z-score)", "setting": "[27]", "result": -0.527}, {"measurement": "glycan array binding signal (z-score)", "setting": "[28]", "result": -1.05}, {"measurement": "glycan array binding signal (z-score)", "setting": "[29]", "result": -1.18}, {"measurement": "glycan array binding signal (z-score)", "setting": "[30]", "result": 0.201}, {"measurement": "glycan array binding signal (z-score)", "setting": "[31]", "result": 1.3}, {"measurement": "glycan array binding signal (z-score)", "setting": "Neu5Gc(a2-3)Gal(b1-4)Glc", "result": -0.455}, {"measurement": "glycan array binding signal (z-score)", "setting": "[32]", "result": -0.247}, {"measurement": "glycan array binding signal (z-score)", "setting": "[33]", "result": -0.805}, {"measurement": "glycan array binding signal (z-score)", "setting": "[34]", "result": -0.439}, {"measurement": "glycan array binding signal (z-score)", "setting": "Neu5Gc(a2-6)GalNAc", "result": -0.106}, {"measurement": "glycan array binding signal (z-score)", "setting": "[35]", "result": 0.497}]}]}
